The values below come from patent US4673674A, “Diazepinoindoles useful for treating depression, schizophrenia, social withdrawal or anxiety and pharmaceutical compositions containing them” (Sandoz Pharmaceuticals Corp., priority 1984, dated 1987).

Chains of the proteins cited; added tags and fusions are not shown.
UniProt P20288, whole entry: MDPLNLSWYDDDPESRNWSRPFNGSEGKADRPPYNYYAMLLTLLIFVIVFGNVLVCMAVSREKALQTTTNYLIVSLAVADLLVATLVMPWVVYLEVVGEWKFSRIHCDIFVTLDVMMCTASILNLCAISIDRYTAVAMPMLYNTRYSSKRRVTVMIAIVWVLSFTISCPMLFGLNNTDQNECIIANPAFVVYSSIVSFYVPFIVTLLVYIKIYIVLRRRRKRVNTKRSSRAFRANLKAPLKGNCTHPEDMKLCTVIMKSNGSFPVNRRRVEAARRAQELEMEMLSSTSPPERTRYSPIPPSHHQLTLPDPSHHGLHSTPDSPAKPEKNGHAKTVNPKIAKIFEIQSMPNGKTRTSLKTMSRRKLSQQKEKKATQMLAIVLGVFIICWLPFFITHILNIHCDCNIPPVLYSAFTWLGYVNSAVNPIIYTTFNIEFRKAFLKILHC

The assay addresses T1, 3H-spiperone binding sites in the brain (calf brain striatal tissue) (Bos taurus, UniProt P20288).
T1 construct: fresh calf brain striatal tissue was homogenized; from tissue; host or cells: calf brain striatal membranes
The assay can be described thus: inhibition of specific 3H-spiperone binding in calf brain striatal tissue.

For orientation: IC50 means the point on the concentration scale where inhibition reaches its midpoint. The compound `CSc1ccc2c(c1)N(CCC1CCCCN1C)c1ccccc1S2` (stereo not shown) [thioridazine, reference compound] displayed an IC50 of 33 nM.
